# Data from PubChem BioAssay AID540275 (National Center for Advancing Translational Sciences (NCATS), 2011).
# Protein sequences, listed by entry. Tags and fused reporters are not part of them.
# UniProt Q8NER1, whole entry, looked up: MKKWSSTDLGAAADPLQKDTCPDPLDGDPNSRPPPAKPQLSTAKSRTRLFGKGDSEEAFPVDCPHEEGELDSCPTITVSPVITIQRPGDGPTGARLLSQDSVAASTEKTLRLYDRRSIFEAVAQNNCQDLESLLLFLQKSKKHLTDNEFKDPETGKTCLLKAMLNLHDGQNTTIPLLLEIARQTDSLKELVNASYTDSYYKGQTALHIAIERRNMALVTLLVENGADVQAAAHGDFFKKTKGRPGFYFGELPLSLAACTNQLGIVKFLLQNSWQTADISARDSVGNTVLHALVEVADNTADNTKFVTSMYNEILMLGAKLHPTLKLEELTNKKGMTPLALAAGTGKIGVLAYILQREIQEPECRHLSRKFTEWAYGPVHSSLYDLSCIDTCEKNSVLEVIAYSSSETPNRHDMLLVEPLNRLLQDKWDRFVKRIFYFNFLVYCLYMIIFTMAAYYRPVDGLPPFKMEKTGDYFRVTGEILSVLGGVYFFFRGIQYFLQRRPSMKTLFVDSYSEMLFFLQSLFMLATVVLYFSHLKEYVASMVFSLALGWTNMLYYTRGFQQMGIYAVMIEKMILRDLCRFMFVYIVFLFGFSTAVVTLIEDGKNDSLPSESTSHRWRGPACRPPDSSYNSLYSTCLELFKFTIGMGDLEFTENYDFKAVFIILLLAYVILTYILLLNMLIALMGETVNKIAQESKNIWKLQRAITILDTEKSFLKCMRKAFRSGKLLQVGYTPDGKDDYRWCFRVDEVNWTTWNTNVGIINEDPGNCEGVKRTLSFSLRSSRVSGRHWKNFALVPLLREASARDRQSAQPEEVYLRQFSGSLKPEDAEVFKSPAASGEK
# Out of some 320,000 compounds screened, about 620 (0.19%) were called active. This list was built around the results that the source calls inconclusive (neither active nor inactive); the mix of calls is not that of the screen. Cut-off read from the data, not from the text of the source: active = activation above about 80%; inconclusive = between about 30% and that limit; inactive = weaker than that.
# Molecular target: Transient receptor potential cation channel subfamily V member 1 (Homo sapiens) (UniProt Q8NER1)
# Test: HTS Assay for Compounds that Act as Agonists of the Vanilloid Receptor 1; note: 0% is about no effect
# Conditions: TRPV1-expressing cells, Fluo-8 calcium influx, agonist mode; at 8.33 µM, stronger effect = higher value
# Outline: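 TRPV1-expressing cells were cultured overnight at 35.5C and loaded with Fluo-8 calcium dye for 40 to 90 min at room temperature. After a 10 s baseline, compound was added and calcium influx was read kinetically for 3 min (ex 480/em 520 nm).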
row,Structure (SMILES),activation
1,CCOc1ccc(NC(=O)c2ccccn2)cc1,inconclusive: 37.5%
2,O=C(c1cc(COc2ccc(F)c(F)c2)on1)N1CCSCC1,inconclusive: 67.1%
3,O=C1C=C(Nc2cccc(Cl)c2)CC(c2ccco2)C1 (stereo not drawn),inconclusive: 43.8%
4,O=C(NC1CCN(Cc2ccccc2)CC1)c1ccccc1OCc1ccccc1,inconclusive: 35.1%
5,Cc1csc(NC(=O)c2cc3c(s2)CCC3)n1,inconclusive: 63.4%
6,O=C(CNC(=O)N1CC(=O)Nc2ccccc21)Nc1ccc(Cl)cc1,inactive: 0.975%
7,COc1ccc(CCNC(=O)Nc2cccs2)c(OC)c1,inconclusive: 41.4%
8,C[C@H](O)c1[nH]c2cc(F)ccc2c1[C@H](C)O,inactive: 0.861%
9,COc1ccc(OCc2cc(C(=O)N3CCCC(O)C3)no2)c2ccccc12 (stereo not drawn),inconclusive: 32.5%
10,C/C(CC(=O)Nc1ccc(C)c(Cl)c1)=N\NC(=O)c1ccncc1,inconclusive: 33.6%
11,CC(C)(C)OC(=O)[C@H]1[C@H](c2ccc([N+](=O)[O-])cc2)C2(C(=O)c3ccccc3C2=O)C2c3ccccc3C=NN21 (stereo partly drawn),inconclusive: 49.8%
12,CCn1cc(/C=N/NC(=O)c2ccc(C#N)cc2F)c2ccccc21,inactive: -0.0059%
13,COc1ccc(CC2(CO)CCN(S(=O)(=O)c3c(C)nn(C)c3Cl)CC2)cc1,inactive: 17.3%
14,NS(=O)(=O)c1cc(C(=O)NCC2CCCCC2)ccc1Cl,inactive: -0.557%
15,COc1ccc(-c2nc(-c3ccc(Br)o3)no2)cc1,inactive: 6.92%
16,Cc1ccccc1OCCCC(=O)NC1CCCCC1,inconclusive: 61.9%
17,C=CCOc1ccc(C2C(C#N)=C(N)N(Nc3ccccc3)C3=C2C(=O)CCC3)cc1OC (stereo not drawn),inconclusive: 49.9%
18,Cc1occc1C(=O)N/N=C/c1ccc(Br)s1,inconclusive: 40.4%
19,Cc1ncoc1C(=O)Nc1ccc(Oc2ccccc2)cc1,active: 83.6%
20,CN(c1ccccc1)c1nc(N)c([N+](=O)[O-])c(N2CCCCCC2)n1,inconclusive: 33.7%

row,Structure (SMILES),activation
1,CCN(C(=O)COc1ccc(C)nc1[N+](=O)[O-])C1CCS(=O)(=O)C1 (stereo not drawn),inactive: 0.0444%
2,COc1cc(NC(=O)CC(C)S(=O)(=O)c2cc3c(cc2C)NC(=O)CO3)cc(OC)c1OC (stereo not drawn),inconclusive: 37.2%
3,O=C(N/N=C/c1cccs1)C(=O)Nc1cccc(Cl)c1,inconclusive: 37.8%
4,O=c1c(Cl)c(NCCCO)cnn1-c1nc2ccccc2[nH]1,inactive: 2.77%
5,CC1CCN(c2c(NCC3CCC(C(=O)NCc4ccccc4Cl)CC3)c(=O)c2=O)CC1 (stereo not drawn),inconclusive: 34%
6,Cc1ccc(NC(=O)c2cc(S(=O)(=O)N3CCCCC3)cs2)cc1,inconclusive: 65.6%
7,Cc1ccc(CNC(=O)C(=O)NCCC2CCCCN2S(=O)(=O)c2ccccc2)cc1 (stereo not drawn),inconclusive: 31.6%
8,CC(C)(C)c1csc(N/N=C/c2cccnc2)n1,inconclusive: 38.9%
9,O=[N+]([O-])c1ccc(COn2nnc3ccccc32)cc1,inconclusive: 34.5%
10,C/C(=N/NC(=O)c1cc2ccccc2cc1O)C1C(=O)c2ccccc2C1=O,inactive: 1.98%
11,CC(C)(C)OC(=O)N[C@@H](Cc1ccccc1)c1nnc(SCC(=O)O)o1,inactive: -1.18%
12,CN(C)S(=O)(=O)c1cccc(COC(=O)c2ccc(Cl)cc2O)c1,inactive: 0.938%
13,COC(=O)c1cc(CNC(=O)c2ccc(N3CCCC3)c([N+](=O)[O-])c2)ccc1OC,inconclusive: 49.7%
14,O=C(c1cc(COc2cccc(C(F)(F)F)c2)on1)N1C[C@@H]2CCC[C@H]1C2,inconclusive: 37.5%
15,Cc1ccc(NC(=O)c2ccc(S(=O)(=O)N3CCC(C)CC3)cc2)nc1,inactive: -8.44%
16,Cc1cccn2c(=O)c3cc(C(=O)NCC4CCCO4)c(=N)n(Cc4ccc(F)cc4)c3nc12 (stereo not drawn),active: 84.1%
17,C=C(C)CSc1nc2c(c(=O)[nH]c(=O)n2C)n1CCC(C)C,inconclusive: 51.8%
18,CN1CCN(CCC(=O)N/N=C/c2ccccc2F)CC1,inactive: 1.25%
19,Cc1cc(C)c(O)c(NC(=S)NC(=O)Cc2ccccc2)c1,active: 80.6%
20,COc1ccc(-c2nn(-c3ccccc3)cc2/C=C/C(=O)N2CCN(c3ccccn3)CC2)cc1,inconclusive: 35.8%

# An excerpt from above in order of molecular weight, smallest number first.
row,Structure (SMILES),activation
8,CC(C)(C)c1csc(N/N=C/c2cccnc2)n1,inconclusive: 38.9%
9,O=[N+]([O-])c1ccc(COn2nnc3ccccc32)cc1,inconclusive: 34.5%
18,CN1CCN(CCC(=O)N/N=C/c2ccccc2F)CC1,inactive: 1.25%
3,O=C(N/N=C/c1cccs1)C(=O)Nc1cccc(Cl)c1,inconclusive: 37.8%
19,Cc1cc(C)c(O)c(NC(=S)NC(=O)Cc2ccccc2)c1,active: 80.6%
17,C=C(C)CSc1nc2c(c(=O)[nH]c(=O)n2C)n1CCC(C)C,inconclusive: 51.8%
20,CN(c1ccccc1)c1nc(N)c([N+](=O)[O-])c(N2CCCCCC2)n1,inconclusive: 33.7%
12,CN(C)S(=O)(=O)c1cccc(COC(=O)c2ccc(Cl)cc2O)c1,inactive: 0.938%
10,C/C(=N/NC(=O)c1cc2ccccc2cc1O)C1C(=O)c2ccccc2C1=O,inactive: 1.98%
15,Cc1ccc(NC(=O)c2ccc(S(=O)(=O)N3CCC(C)CC3)cc2)nc1,inactive: -8.44%
11,CC(C)(C)OC(=O)N[C@@H](Cc1ccccc1)c1nnc(SCC(=O)O)o1,inactive: -1.18%
14,O=C(c1cc(COc2cccc(C(F)(F)F)c2)on1)N1C[C@@H]2CCC[C@H]1C2,inconclusive: 37.5%
13,COC(=O)c1cc(CNC(=O)c2ccc(N3CCCC3)c([N+](=O)[O-])c2)ccc1OC,inconclusive: 49.7%
7,Cc1ccc(CNC(=O)C(=O)NCCC2CCCCN2S(=O)(=O)c2ccccc2)cc1 (stereo not drawn),inconclusive: 31.6%
5,CC1CCN(c2c(NCC3CCC(C(=O)NCc4ccccc4Cl)CC3)c(=O)c2=O)CC1 (stereo not drawn),inconclusive: 34%
16,Cc1cccn2c(=O)c3cc(C(=O)NCC4CCCO4)c(=N)n(Cc4ccc(F)cc4)c3nc12 (stereo not drawn),active: 84.1%
20,COc1ccc(-c2nn(-c3ccccc3)cc2/C=C/C(=O)N2CCN(c3ccccn3)CC2)cc1,inconclusive: 35.8%
2,COc1cc(NC(=O)CC(C)S(=O)(=O)c2cc3c(cc2C)NC(=O)CO3)cc(OC)c1OC (stereo not drawn),inconclusive: 37.2%

# The list continues.

row,Structure (SMILES),activation
1,Cc1ccc(-c2nnc(-c3cc(C)on3)o2)cc1,inconclusive: 45%
2,CCn1cc(CCC(=O)NCc2cccc(OC)c2OC)c2ccccc21,inconclusive: 51.6%
3,O=C(CCS(=O)(=O)c1ccc(Br)cc1)NCCC1=CCCCC1,inconclusive: 54.8%
4,CCn1cc(Cl)c(C(=O)Nc2ccc3c(c2)OCCO3)n1,inactive: 6.9%
5,C/C(=N\NC(=O)c1cc2c(s1)CCC(C)C2)c1cccnc1 (stereo not drawn),inconclusive: 33.4%
6,CCCc1cc(=O)[nH]c(SCC(=O)Nc2sc3c(c2C#N)CCC(C)C3)n1 (stereo not drawn),inactive: -1.48%
7,COC(=O)c1ccc(-n2c(C)cc(C(=O)CSc3ccc(NC(C)=O)cc3)c2C)cc1,inactive: 9.57%
8,OC(COc1ccc(Cl)cc1)CN1CCN(c2ccccc2)CC1 (stereo not drawn),inactive: 0.723%
9,COc1ccc(N2CC(C(=O)OCC(=O)c3cccc(OC)c3)CC2=O)cc1 (stereo not drawn),inconclusive: 32.8%
10,O=C(Cn1cnc2c(nnn2Cc2ccc(F)cc2)c1=O)OCc1ccccc1,inconclusive: 60.6%
11,CCOC(=O)c1ccc(N2C(=O)C=C(N3CCOCC3)C2=O)cc1,inconclusive: 38.5%
12,Cn1nc([N+](=O)[O-])nc1S(C)(=O)=O,inactive: -0.257%
13,CCN(CC)C(=O)c1nn(-c2ccccc2)c2c1C1CCC2(C)C1(C)C (stereo not drawn),inconclusive: 57.9%
14,O=C(Nc1ccc2[nH]ncc2c1)c1ccc(F)cc1,inconclusive: 53%
15,CC(=O)Nc1cccc(C(=O)OC(C)C(=O)NC(=O)NC2CCCCC2)c1 (stereo not drawn),inconclusive: 31.3%
16,O=C(Nc1cccc(CCc2ccccn2)c1)c1ccc(Cl)cc1,inconclusive: 49.8%
17,Cc1ccccc1NC(=O)c1cc2ccccn2n1,inconclusive: 38.1%
18,Cc1ccc(C)c(S(=O)(=O)N2CCCN(C)CC2)c1,inactive: 3.26%
